Reference: patent publication US4459290A, “C-23-Modified derivatives of OMT, pharmaceutical compositions and method of use” (priority 1982, dated 1984)
Structures can show the parent of a compound that is named as a salt. Some entries share one result that the patent states for a list of compounds.

Test system: these strains
Assay: Activity against the strains of Table VI, agar-dilution
Format: cell-based
Conditions: at the levels tested
Procedure: Especially noteworthy is the improved activity against gram-negative bacteria for several derivatives when compared to the activity of OMT. […] The MIC's in Tables V and VI were determined by standard agar-dilution assays. The MIC's in Table VII were obtained using a conventional broth-dilution microtiter test.

SMILES	activity against these strains
CCC1OC(=O)CC(O)C(C)C(OC2OC(C)C(O)C(N(C)C)C2O)C(CC=O)CC(C)C(=O)C=CC(C)=CC1CNC(=O)[C@H](NC(=O)OC(C)(C)C)c1ccccc1 (single isomer, unassigned) [Compound 11, 23-Deoxy-23-[(D)-(-)-(N-t-BOC-phenylglycyl)amino]-OMT]	did not show activity
CCC1OC(=O)CC(O)C(C)C(OC2OC(C)C(O)C(N(C)C)C2O)C(CC=O)CC(C)C(=O)C=CC(C)=CC1CNC(=O)[C@H](N)c1ccccc1 (single isomer, unassigned) [Compound 12, 23-Deoxy-23-N-(D-(-)-phenylglycyl)amino-OMT bis(trifluoroacetate) salt]	did not show activity
CCC1OC(=O)CC(O)C(C)C(OC2OC(C)C(O)C(N(C)C)C2O)C(CC=O)CC(C)C(=O)C=CC(C)=CC1CN (stereo not drawn) [Compound 9, 23-Deoxy-23-amino-OMT]	did not show activity
CCC1OC(=O)CC(O)C(C)C(OC2OC(C)C(O)C(N(C)C)C2O)C(CC=O)CC(C)C(=O)C=CC(C)=CC1CNC(=O)Cc1ccccc1 (stereo not drawn) [Compound 10, 23-Deoxy-23-N-(phenylacetyl)amino-OMT]	did not show activity
CCC1OC(=O)CC(O)C(C)C(OC2OC(C)C(O)C(N(C)C)C2O)C(CC=O)CC(C)C(=O)C=CC(C)=CC1CNC(=O)CNC(=O)C(C)NC(=O)OC(C)(C)C (stereo not drawn) [Compound 13]	did not show activity
CCC1OC(=O)CC(O)C(C)C(OC2OC(C)C(O)C(N(C)C)C2O)C(CC=O)CC(C)C(=O)C=CC(C)=CC1CNC(=O)CNC(=O)C(C)N (stereo not drawn) [Compound 14]	did not show activity
